In PMC9844606 one finds binding data, which are given here for one molecule.

Protein sequences, listed by entry. Tags and fused reporters are not part of them.
UniProt Q99929: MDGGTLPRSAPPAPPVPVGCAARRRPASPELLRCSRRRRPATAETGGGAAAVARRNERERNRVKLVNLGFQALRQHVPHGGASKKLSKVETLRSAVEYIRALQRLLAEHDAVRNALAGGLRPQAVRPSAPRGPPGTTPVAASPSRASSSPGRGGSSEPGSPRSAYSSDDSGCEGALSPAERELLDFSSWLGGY

These are yes or no findings as the source states them, for the method shown. Binding seen in cells or lysates may run through a third protein. Some results given as binding are weak or reduced against the parent protein; the word gives no strength.

The target of the assay is Achaete scute-like 2 (ASCL2) (human (endogenous in HCT116 and SW620)) (UniProt Q99929). Description: co-IP; reciprocal co-IP from HCT116 and SW620 cell lysates; DPEP1 or ASCL2 primary antibody 4 h at 4°C, protein A/G-agarose beads overnight at 4°C, three washes, western blotting. Background: A western blot detects proteins with antibodies after separation by electrophoresis.

B1: Dipeptidase 1 (DPEP1) (protein, UniProt P16444 17-385)
chain: DFFRDEAERIMRDSPVIDGHNDLPWQLLDMFNNRLQDERANLTTLAGTHTNIPKLRAGFVGGQFWSVYTPCDTQNKDAVRRTLEQMDVVHRMCRMYPETFLYVTSSAGIRQAFREGKVASLIGVEGGHSIDSSLGVLRALYQLGMRYLTLTHSCNTPWADNWLVDTGDSEPQSQGLSPFGQRVVKELNRLGVLIDLAHVSVATMKATLQLSRAPVIFSHSSAYSVCASRRNVPDDVLRLVKQTDSLVMVNFYNNYISCTNKANLSQVADHLDHIKEVAGARAVGFGGDFDGVPRVPEGLEDVSKYPDLIAELLRRNWTEAEVKGALADNLLRVFEAVEQASNLTQAPEEEPIPLDQLGGSCRTHYGYSS
Turning to B1, the binding result was “binds”.
